Reference: PubChem BioAssay AID1671190 (National Center for Advancing Translational Sciences (NCATS), 2021)
Where “and” joins values, the source holds several entries; their conditions need not be identical. Equal values may be shown once. The whole screen tested about 580,000 compounds, of which about 6,100 (1.1%) were called active. Inconclusive means that the source gave no clear call. Such entries were picked first, then a sample of the others. Calls follow the shape of the dose curve; as a rule, active = well fitted inhibition curve with a large enough effect; inconclusive = small, poorly fitted or top-dose-only effect, or another doubt; inactive = no such curve, though single readings can be large or run the other way. A potency beside an inconclusive call is a rough fit, not a confirmed value.

The chains behind the UniProt entries cited, without tags or fusion partners. Where a name states a change or a piece, a line headed by the entry shows the natural chain unless it says otherwise.
UniProt P18054: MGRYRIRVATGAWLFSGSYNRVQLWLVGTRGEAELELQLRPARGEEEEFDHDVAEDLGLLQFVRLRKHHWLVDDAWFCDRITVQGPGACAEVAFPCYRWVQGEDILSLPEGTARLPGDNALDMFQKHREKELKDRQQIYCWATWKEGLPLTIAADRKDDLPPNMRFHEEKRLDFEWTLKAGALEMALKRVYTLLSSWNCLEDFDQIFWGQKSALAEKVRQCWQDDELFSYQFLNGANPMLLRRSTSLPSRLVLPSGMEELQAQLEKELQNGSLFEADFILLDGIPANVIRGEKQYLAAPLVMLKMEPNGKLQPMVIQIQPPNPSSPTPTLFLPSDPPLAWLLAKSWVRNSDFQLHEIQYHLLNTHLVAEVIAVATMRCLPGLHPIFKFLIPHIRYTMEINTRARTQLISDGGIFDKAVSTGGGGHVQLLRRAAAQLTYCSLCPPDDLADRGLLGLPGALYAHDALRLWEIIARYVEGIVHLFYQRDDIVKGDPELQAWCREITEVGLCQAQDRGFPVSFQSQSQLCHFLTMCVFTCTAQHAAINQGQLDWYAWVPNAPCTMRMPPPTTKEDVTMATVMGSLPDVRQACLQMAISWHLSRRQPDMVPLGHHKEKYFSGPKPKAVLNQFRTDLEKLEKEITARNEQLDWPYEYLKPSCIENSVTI

These compounds were tested against Polyunsaturated fatty acid lipoxygenase ALOX12 (Homo sapiens) (UniProt P18054) (assay: Primary qHTS assay for inhibitors of human arachidonate 12S-lipoxygenase (ALOX12): Round 2). Details: purified 12hLO, xylenol orange hydroperoxide absorbance; activity change, negative = inhibition: at 108 µM (top of the series) unless noted.
In short: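 Purified human 12hLO (150 nM final) in 25 mM Hepes, 0.01% Triton X-100, pH 7.0 was preincubated 15 min at room temperature with compound. Then 40 uM arachidonic acid was added, 30 min. Hydroperoxide was read by Fe-XO absorbance ratio 573/405 nm.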
% is scaled to controls: 0 for no effect and ±100 for the full control effect; potency is read from the fitted curve at half-maximal effect.

SMILES | Potency | activity change, negative = inhibition
CCN(Cc1cccs1)C(=O)/C=C/c1nc2ccccc2s1 | inconclusive: 28.2 µM [inhibitor, partial curve] | –
Cc1ccc(NC(=O)C2(C)CCCN2C)cc1C (stereo not given) | inconclusive: 89.1 µM [inhibitor, partial curve, poor fit] | –
CC(C)(C(=O)O)n1cncn1 | inconclusive: 14.1 µM [inhibitor, full curve] | –
COc1ccccc1NC(=O)c1ccc(NC(=O)CC2Sc3ccccc3NC2=O)cc1 (stereo not given) | inconclusive: 50.1 µM [inhibitor, partial curve, poor fit] | –
COc1ccc2c(c1)CCc1cc(C(=O)O)sc1-2 | – | inactive: -27.6%
CC(=O)c1cc2c(cc1N/C(=N/S(=O)(=O)c1ccc(C)cc1)c1ccccc1)OCO2 | inconclusive: 112 µM [inhibitor, partial curve, poor fit] | –
CCN(CC)C(=O)Cn1ccn2nc(-c3ccccc3)c(CO)c2c1=O | – | inactive: 19.9%
Cc1ccc(NC(=O)c2ccco2)c(NC(=O)c2ccc(Cl)cc2)c1 | inconclusive: 31.6 µM [inhibitor, partial curve, poor fit] | –
Oc1ccc(C(c2c[nH]c3ccccc23)c2c[nH]c3ccccc23)cc1 | inconclusive: 31.6 µM [inhibitor, partial curve] | –
Cc1sc(Nc2ccc([N+](=O)[O-])cc2)nc1-c1c(C)n(C)n(-c2ccccc2)c1=O | – | inactive: 45.1%
O=C1CSC(c2ccc(Br)cc2)N1c1cccc(C(F)(F)F)c1 (stereo not given) | inconclusive: 89.1 µM [inhibitor, single point] | –
CC(=O)NCCNC(=O)CCc1ncc(-c2ccc(Cl)cc2Cl)o1 | inconclusive: 6.31 µM [inhibitor, partial curve, poor fit] | –
CCc1cnc2c(c1SCC(=O)N1CCCCC1)c(=O)n(C)c(=O)n2C | – | inactive: 0.698%
COP(=O)(OC)c1nc(-c2ccco2)oc1NCc1ccc(F)cc1 | inconclusive: 126 µM [inhibitor, single point] | –
CN(C)c1ncc2nc(-c3cccs3)c(=O)n(CCC#N)c2n1 | inconclusive: 28.2 µM [inhibitor, single point] | –
COc1ccc(N2C(=O)C(Cl)=C(Nc3c(C)n(C)n(-c4ccccc4)c3=O)C2=O)cc1 | inconclusive: 56.2 µM [inhibitor, partial curve, poor fit] | –
C=CCn1c(Cc2cccs2)nnc1SCC(=O)c1cccc(Br)c1 | – | inactive: 0%
O=C(O)C1CCc2nnc(C3CCCN(C(=O)c4ccc5c(c4)OC(F)(F)O5)C3)n21 (stereo not given) | inconclusive: 8.91 µM [inhibitor, full curve] | –
O=C(O)CSCC(=O)N(Cc1ccccc1)c1nc(-c2ccccc2)c(-c2ccccc2)s1 | inconclusive: 50.1 µM [inhibitor, partial curve, poor fit] | –
CN1CCc2c(c3ccccc3n2Cc2ccc(C(=O)NO)cc2)C1 | – | inactive: -7.45% [at 57.4 µM]
CCOc1ccc(CNCc2c(C(=O)O)n(Cc3ccccc3F)c3cc(OC)ccc23)cc1 | – | inactive: -2.13%
CSCc1ccc(N2CCC(C(C)N3CCCC3)CC2)nc1 (stereo not given) | – | inactive: -0.404%

Record cards, as listed above:
`CC(=O)NCCNC(=O)CCc1ncc(-c2ccc(Cl)cc2Cl)o1` as listed: Potency: inconclusive: 6.31 µM [inhibitor, partial curve, poor fit]
`CN(C)c1ncc2nc(-c3cccs3)c(=O)n(CCC#N)c2n1` as listed: Potency: inconclusive: 28.2 µM [inhibitor, single point]
`CSCc1ccc(N2CCC(C(C)N3CCCC3)CC2)nc1` (stereo not given) as listed: activity change, negative = inhibition: inactive: -0.404%

Later entries

SMILES | Potency | activity change, negative = inhibition
O=C(Cc1cc(Cl)c2c(c1)OCCO2)NC1CCN(C2CC2)CC1 | – | inactive: 2.72%
CC(=O)c1cccc(N(C(=O)c2ccco2)C(C(=O)NC2CCCC2)c2ccccc2F)c1 (stereo not given) | – | inactive: 18.9%
O=C(/C=C/c1ccc(O)cc1)c1cccc(Br)c1 | inconclusive: 70.8 µM [inhibitor, partial curve, poor fit] | –
COc1ccc(-c2cc(C(=O)O)n(Cc3ccccc3)n2)cc1 | inconclusive: 141 µM [inhibitor, partial curve, poor fit] | –
Cc1nc(N)sc1-c1csc(Nc2cc(N(C)C)ccc2Cl)n1 | inconclusive: 112 µM [inhibitor, single point] | –
COc1ccc(NC(=O)CSc2nc(-c3cccs3)cc(C(F)(F)F)n2)cc1OC | inconclusive: 112 µM [inhibitor, single point] | –
O=C(CCC(=O)c1cccs1)NCc1ccccc1 | inconclusive: 31.6 µM [inhibitor, single point] | –
CCN(CC(=O)Nc1ccc(NC(C)=O)cc1)C(=O)c1ccc(N(C)S(=O)(=O)c2ccc(C)cc2)cc1 | – | inactive: -10%
O=C(c1ccncc1)N1CC(=O)N2[C@H](CO)[C@H](c3ccc(Br)cc3)[C@@H]2C1 | inconclusive: 100 µM [inhibitor, single point] | –
N#Cc1cccc(-c2nc3cnc(N4CCOCC4)nc3n(C[C@H]3CCCO3)c2=O)c1 | inconclusive: 31.6 µM [inhibitor, partial curve, poor fit] | –
Cc1[nH]cnc1C(=O)N1CCOc2c(O)cc(-c3csc4ccccc34)cc2C1 | – | inactive: 24.4%
CCN1CCN(c2cc(N3CCc4ccccc4C3)c(F)cc2[N+](=O)[O-])CC1 | inconclusive: 14.1 µM [inhibitor, full curve] | –
N#CC(Cc1cccnc1)C(=O)Nc1ccc(Cl)c(Cl)c1 (stereo not given) | inconclusive: 39.8 µM [inhibitor, partial curve, poor fit] | –
Cn1cc(-c2ccccc2)cc1C(=O)N1CCOCC1 | inconclusive: 22.4 µM [inhibitor, partial curve] | –
CCN(CC(=O)Nc1ccccc1C(F)(F)F)C(=O)c1cc(-c2cccs2)nn1-c1ccccc1 | – | inactive: -0.189%
Cc1cccc(NC(=S)NCCc2ccc(F)cc2)c1C | active: 39.8 µM | –
CCCCOCC1CN(CCCC)S(=O)(=O)c2c(Oc3ccc(C(C)C)cc3)cccc2O1 (stereo not given) | inconclusive: 2.82 µM [inhibitor, single point] | –
Cc1ccc(NC(=O)c2cc(-c3ccc[nH]3)n[nH]2)cc1C | inconclusive: 12.6 µM [inhibitor, full curve] | –
COC(=O)C1(O)CC(c2ccccc2)C(C(=O)c2ccc(Cl)cc2)N1c1ccccc1 (stereo not given) | inconclusive: 44.7 µM [inhibitor, partial curve, poor fit] | –
CN(CC(=O)NC(N)=O)C(c1ccccc1)c1ccccc1 | – | inactive: -7%
Cc1ccc(CN(C)C(=O)c2cc(Br)ccc2O)c(C)c1 | inconclusive: 44.7 µM [inhibitor, partial curve, poor fit] | –
Nc1c(-c2nc3ccccc3[nH]2)c2ccccn2c1C(=O)c1ccc(Cl)cc1 | – | inactive: 17.5%

SMILES | Potency | activity change, negative = inhibition
O=C(c1ccccc1)N1CCn2c(nnc2[C@@H]2C[C@@H](O)CN2Cc2ccccc2)C1 | inconclusive: 22.4 µM [inhibitor, single point] | –
CC(C)NC(=O)NC[C@H]1OC[C@@H](NCc2cccnc2)[C@@H]1O | inconclusive: 28.2 µM [inhibitor, full curve] | –
COc1ccc(C2C(C#N)=C(SCC(=O)Nc3cccc(F)c3)NC3=C2C(=O)CC(C)(C)C3)cc1 (stereo not given) | inconclusive: 22.4 µM [inhibitor, partial curve, poor fit] | –
CC(C)CCN1CCN(Cc2cc(F)ccc2-n2cccn2)CC1CCO (stereo not given) | – | inactive: 15.7%
COc1ccc(CNC(=O)CC(C)S(=O)(=O)c2ccc3c(c2)NC(=O)CO3)cc1 (stereo not given) | – | inactive: -2.41%
CC(=O)c1cccc(S(=O)(=O)NCC(=O)O)c1 | inconclusive: 0.631 µM [inhibitor, full curve, poor fit] | –
COC(=O)c1c(C)oc2ccc(N(C(=O)c3ccncc3)S(=O)(=O)c3ccccc3)cc12 | inconclusive: 79.4 µM [inhibitor, partial curve, poor fit] | –
COc1cccc(-c2cc(C(=O)Nc3cc(Cl)ccc3O)on2)c1 | inconclusive: 0.398 µM [inhibitor, full curve, poor fit] | –
CS(=O)(=O)N1CC(C(=O)O)Oc2ccc(CC(=O)O)cc21 (stereo not given) | – | inactive: -3.06%
CC(=O)c1c(CSc2ccccc2)oc2ccc(O)c(CN(C)C)c12 | inconclusive: 70.8 µM [inhibitor, partial curve, poor fit] | –
O=C(COC(=O)c1ccc2ccccc2n1)c1cccc(Cl)c1 | inconclusive: 39.8 µM [inhibitor, full curve, poor fit] | –
CCCNC(=O)c1cccc(Cn2nc(C)c(Br)c2C)c1 | inconclusive: 25.1 µM [inhibitor, single point] | –
CC(C)(C)OC(=O)N1CC(Nc2ccc(Oc3ccccc3)cc2)C1 | inconclusive: 100 µM [inhibitor, partial curve, poor fit] | –
Cc1cc(S(=O)(=O)N2CCCC(N(C)CCc3ccccn3)C2)c(C)cc1Cl (stereo not given) | inconclusive: 25.1 µM [inhibitor, partial curve, poor fit] | –
CNC(=O)NC(=O)CSc1nnc(-c2ccncc2)n1CC(F)(F)F | inconclusive: 35.5 µM [inhibitor, partial curve, poor fit] | –
O=C1CC(NCc2cccs2)C(=O)N1c1ccc(Cl)cc1 (stereo not given) | inconclusive: 35.5 µM [inhibitor, partial curve, poor fit] | –
O=C(CCC[C@H]1NC[C@@H]2C[C@H]1CN(Cc1ccccc1)C2)NCCCN1CCCc2ccccc21 | inconclusive: 3.98 µM [inhibitor, full curve, poor fit] | –
COc1ccc(OC)c(CN2CCCCCC2)c1 | inconclusive: 224 nM [inhibitor, full curve, poor fit] and inconclusive: 562 nM [inhibitor, full curve, poor fit] | –
Cc1ccc(/C=N/n2c(-c3cccnc3)n[nH]c2=S)o1 | inconclusive: 31.6 µM [inhibitor, partial curve, poor fit] | –
COC(=O)c1cc(NC(=O)c2cccc3ccccc23)cc(C(=O)OC)c1 | inconclusive: 3.16 µM [inhibitor, full curve, poor fit] | –
CCN(CC)C(=O)c1cc(-c2ccc(C)cc2)nc2ccccc12 | inconclusive: 79.4 µM [inhibitor, single point] | –
